PubChem BioAssay AID2551 (National Center for Advancing Translational Sciences (NCATS), 2010)
Out of some 310,000 compounds screened, about 17,000 (5.5%) were called active. The inconclusive results got no clear call from the source; some entries with a clear call stand among them for comparison. The call rests on the fitted dose curve; in most records, active means well fitted inhibition curve with a large enough effect; inconclusive means small, poorly fitted or top-dose-only effect, or effect the other way; inactive means no such curve, though single readings can be large or run the other way. A potency beside an inconclusive call is a rough fit, not a confirmed value.
Further: nearly all actives have a fitted effect of over 60% in size.
On the % scale 0 is the no-effect control and ±100 the full control effect; potency means the concentration at half of the fitted maximal effect.

By UniProt entry, the sequences of proteins in these tests, tags left out. Where a name states a change or a piece, a line headed by the entry shows the natural chain unless it says otherwise.
UniProt P51450: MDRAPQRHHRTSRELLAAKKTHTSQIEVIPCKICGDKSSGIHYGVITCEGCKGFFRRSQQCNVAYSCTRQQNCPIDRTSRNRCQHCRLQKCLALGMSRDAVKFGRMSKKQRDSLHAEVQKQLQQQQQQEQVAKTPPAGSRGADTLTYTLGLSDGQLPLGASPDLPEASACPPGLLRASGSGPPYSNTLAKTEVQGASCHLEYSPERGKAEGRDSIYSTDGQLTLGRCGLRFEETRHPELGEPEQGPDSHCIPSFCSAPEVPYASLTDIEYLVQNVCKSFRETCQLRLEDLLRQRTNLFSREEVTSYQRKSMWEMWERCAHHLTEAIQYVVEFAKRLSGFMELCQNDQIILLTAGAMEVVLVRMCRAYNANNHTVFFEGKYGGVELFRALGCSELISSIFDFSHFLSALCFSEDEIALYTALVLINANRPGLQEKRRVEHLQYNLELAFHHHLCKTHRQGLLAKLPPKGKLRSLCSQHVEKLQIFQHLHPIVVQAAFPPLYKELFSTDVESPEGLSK

What follows are compounds tested against Nuclear receptor ROR-gamma (Mus musculus) (UniProt P51450) (assay: qHTS for inhibitors of ROR gamma transcriptional activity). Conditions: Drosophila S2 Gal4-RORgamma UAS-luciferase reporter, 20 h; activity change, negative = inhibition: at 53.6 µM (top of the series).
In short: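 Stable Schneider cell line, Gal4 DNA-binding domain fused to ROR gamma, UAS-luciferase. Cmpd 1 hr RT → CuSO4 700 uM final → 20 hr RT → luciferase reagent 10 min → luminescence.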
O=C(CSc1nc2ccccc2s1)Nc1ccc(N2CCOCC2)c(Cl)c1 was tested, and the Potency was inconclusive: 28.2 µM [activator, single point]. With CSc1cccc(NC(=S)N(C(C)C)C(C)c2ccccn2)c1 (configuration not stated) the Potency was active: 22.4 µM. Cc1cc2c(c(=O)o1)[C@H](O)[C@H]1O[C@@H]1C2=O was tested, and the Potency was inconclusive: 6.31 µM [inhibitor, single point]. Cc1ccccc1-c1nnc(-c2ccccc2)o1 was tested, and the “activity change, negative = inhibition” value was inactive: 29.4%. For Cc1nc(Cl)cc(N/N=C/c2ccc(O)cc2)n1, the Potency was inconclusive: 20 µM [activator, single point]. With Cc1cc2n(n1)SC(Nc1ccccc1)N2 (configuration not stated) the Potency was active: 3.16 µM. In the case of N#Cc1c(-c2c(Cl)cccc2Cl)noc1/C=C/Nc1ccc(C(=O)O)cc1, the “activity change, negative = inhibition” value is reported as inactive: -3.6%. With O=C(CNc1cccc(C(F)(F)F)c1)N/N=C/c1cn(-c2ccccc2)nc1-c1ccccc1 the Potency was inconclusive: 14.1 µM [inhibitor, single point]. For O=c1c2cn[nH]c2[nH]c(=S)n1-c1cccc(Cl)c1, the Potency was inconclusive: 22.4 µM [inhibitor, single point]. C=CCN(CC=C)S(=O)(=O)c1ccc(NC(=S)NC(=O)/C=C/c2ccccc2)cc1 was tested, and the Potency was active: 2.51 µM. In the case of O=C(CCN1C(=O)c2ccccc2C1=O)Nc1cccc(O)c1, the “activity change, negative = inhibition” value is reported as inactive: -9.05%. For COCC(C)NC(=O)CCSc1nc(-c2ccc(OC)cc2)cc(C(F)(F)F)n1 (configuration not stated), the Potency was inconclusive: 3.55 µM [activator, full curve]. In the case of COc1ccc(/C=N/Nc2nc(Nc3ccccc3)nc(N3CCCC3)n2)cc1, the Potency is reported as active: 2.82 µM. For O=c1c2ccccc2nc(-c2ccc(Cl)c(Cl)c2)n1O, the Potency was inconclusive: 22.4 µM [inhibitor, single point]. COc1ccc(C(C)(C)C)cc1NC(=O)c1cncc(Br)c1 was tested, and the “activity change, negative = inhibition” value was inactive: 32.2%. CCOC(=O)CN1C(=O)C2Cc3ccccc3CN2C1=S (configuration not stated) was tested, and the Potency was inconclusive: 35.5 µM [activator, single point]. With COC(=O)c1ccc(CNC(=O)c2cc(COc3cncc(Cl)c3)on2)cc1 the Potency was inconclusive: 11.2 µM [activator, single point]. In the case of CN(Cc1cccnc1)C(=O)c1ccc2nc(Cc3ccccc3F)oc2c1, the Potency is reported as inconclusive: 12.6 µM [activator, partial curve]. For CCCCn1c(SCC(=O)NC(C)CC)nc2ccc(N3CCOCC3)cc2c1=O (configuration not stated), the Potency was active: 1.26 µM. For Cc1ccc(C)c(N2CCN(CCCNC(=O)Cn3cc4c(n3)CCCCC4)CC2)c1, the Potency was active: 12.6 µM. For O=C(NC(=S)Nc1ccc(N2CCCCC2)cc1)c1ccco1, the Potency was active: 7.08 µM. In the case of C/C(=N\NC(=O)CCC(=O)Nc1ccccc1)c1cccs1, the “activity change, negative = inhibition” value is reported as inactive: 32.5%. For O=C(CCCn1c(=S)[nH]c2cc3c(cc2c1=O)OCO3)NCCc1ccccc1Cl, the Potency was inconclusive: 14.1 µM [inhibitor, single point]. Cc1ccccc1CS(=O)(=O)CCC(=O)NCCN1CCN(c2cccc(Cl)c2)CC1 was tested, and the Potency was inconclusive: 12.6 µM [activator, single point]. COc1ccc(N(C(=O)c2cccnc2)S(=O)(=O)c2ccc3c4c(cccc24)C(=O)N3C)cc1 was tested, and the “activity change, negative = inhibition” value was inactive: -15.3%. With CCOc1ccc(Nc2nc3ccccc3c(=O)s2)cc1 the Potency was active: 3.98 µM. In the case of COc1ccc(CCNC(=O)c2csc3c2CCCC3)cc1, the “activity change, negative = inhibition” value is reported as inactive: 38.1%. For COc1ccc(OC)c(NC(=O)CN(Cc2ccc(Cl)cc2)S(C)(=O)=O)c1, the Potency was inconclusive: 35.5 µM [activator, single point]. In the case of CCOc1cc(/C=C2\CCCC(C(=O)C(F)(F)F)=C2O)ccc1O, the Potency is reported as inconclusive: 31.6 µM [inhibitor, single point]. CCOc1ccc(NC(=S)N2CCC(c3ccc(C)cc3)C2)cc1 (configuration not stated) was tested, and the Potency was inconclusive: 15.8 µM [inhibitor, single point]. Cc1ccc(/C=N/NC(=O)c2cccs2)o1 was tested, and the Potency was inconclusive: 22.4 µM [inhibitor, single point]. For CCCCCCCCC(=O)NCc1cc(OC)c(O)cc1I, the “activity change, negative = inhibition” value was inactive: 19%. With COc1ccc(OC)c(/C=N/c2oc(-c3ccco3)c(-c3ccco3)c2C#N)c1 the Potency was inconclusive: 0.794 µM [inhibitor, single point]. Nc1nnc(SCCOc2ccc(Br)cc2)s1 was tested, and the Potency was inconclusive: 5.01 µM [activator, partial curve]. In the case of O=C(O)c1ccc(NC(=S)Nc2ccccc2)cc1, the “activity change, negative = inhibition” value is reported as inactive: -37.8%. COc1ccc(CNc2oc(-c3ccccc3)nc2C#N)cc1 was tested, and the Potency was inconclusive: 3.16 µM [activator, full curve]. O=C(/C(=N/N=C/c1ccc(O)c(O)c1)c1ccccc1)c1ccccc1 was tested, and the “activity change, negative = inhibition” value was inactive: -24.6%. COc1ccc(-c2ccccc2[C@H]2[C@@H]3C=CC[C@@H](C)[C@@H]3C(=O)N2Cc2ccccc2)cc1 was tested, and the Potency was inconclusive: 17.8 µM [inhibitor, partial curve]. For CCCCCCC(=O)N(O)C1CC(=O)N(c2ccc(F)cc2)C1=O (configuration not stated), the Potency was inconclusive: 15.8 µM [inhibitor, single point]. In the case of COc1cccc(/C=C(/C(=O)OCC(=O)NC2CCCC(C)C2C)c2ccccc2)c1 (configuration not stated), the Potency is reported as inconclusive: 35.5 µM [activator, single point]. For CC(NC(=O)/C(C#N)=C/c1cn[nH]c1-c1ccccc1)c1ccccc1 (configuration not stated), the Potency was inconclusive: 35.5 µM [inhibitor, single point]. In the case of Cn1c2c(c(=O)n(C)c1=O)C(C(F)(F)F)(C(F)(F)F)N=C(c1ccc(Cl)cc1)N2, the Potency is reported as active: 6.31 µM. With COc1ccc2c(c1)C(C)CC(C)(C)N2C(=O)NC1CCCCC1 (configuration not stated) the Potency was inconclusive: 20 µM [activator, single point]. For COc1ccc(C2C(C#N)=C(N)N(N(C)C)C3=C2C(=O)CC(C)(C)C3)cc1 (configuration not stated), the “activity change, negative = inhibition” value was inactive: 27%. In the case of Cc1ccc(S(=O)(=O)Nc2ccc3nc(N)sc3c2)cc1, the Potency is reported as inconclusive: 22.4 µM [activator, single point]. Cc1ccccc1S(=O)(=O)Cc1ccc(C(=O)NCCN2CCCCC2C)o1 (configuration not stated) was tested, and the Potency was inconclusive: 20 µM [inhibitor, single point]. With CC(=O)Nc1cccc(NS(=O)(=O)Cc2ccc(Cl)cc2)c1 the Potency was inconclusive: 35.5 µM [activator, single point]. CCOC(=O)c1cnc2ccc(C)cc2c1Sc1ccc(F)cc1 was tested, and the Potency was inconclusive: 11.2 µM [inhibitor, single point]. For CC1C(c2ccccc2)N(C)C(c2ccccc2)CC1(O)c1ccc(F)cc1 (configuration not stated), the “activity change, negative = inhibition” value was inactive: -20.7%. Cc1ccccc1C(=O)O/N=C(\N)c1ccncc1 was tested, and the Potency was inconclusive: 17.8 µM [inhibitor, single point]. With CC(C)(C)C1CCC(=NNc2nc3ccccc3[nH]2)CC1 (configuration not stated) the Potency was active: 17.8 µM. Cc1ccc(Nc2nc(-c3sc(NC(=O)c4ccco4)nc3C)cs2)cc1 was tested, and the Potency was inconclusive: 35.5 µM [inhibitor, single point]. CCCCn1c(CN2CCN(CCO)CC2)nc2ccccc21 was tested, and the “activity change, negative = inhibition” value was inactive: -0.635%. N#Cc1nc(COc2ccc(Br)cc2)oc1N1CCCCCC1 was tested, and the Potency was inconclusive: 17.8 µM [activator, single point]. In the case of c1ccc(-c2ccc(-n3ccnc3)cc2)cc1, the Potency is reported as inconclusive: 35.5 µM [inhibitor, single point]. For CN1C(=O)C(CC(=O)Nc2ccccc2F)N(NC(=O)c2ccc(Br)cc2)C1=S (configuration not stated), the Potency was inconclusive: 7.08 µM [inhibitor, partial curve, poor fit]. In the case of CC(=O)c1c(C)oc2ccc(NS(=O)(=O)c3ccc(F)cc3C)cc12, the Potency is reported as inconclusive: 2.82 µM [activator, full curve, poor fit]. For Cc1cccc(CSc2ncnc3c2cnn3Cc2ccccc2)c1, the “activity change, negative = inhibition” value was inactive: 32.9%. In the case of CCCOc1ccc(N2C(=O)C3ON(c4ccccc4)C(CCC)C3C2=O)cc1 (configuration not stated), the “activity change, negative = inhibition” value is reported as inactive: -5.96%. For CN(C)c1ccc(NC(=O)c2sc(SCC(=O)Nc3nccs3)nc2N)cc1, the Potency was inconclusive: 3.98 µM [activator, full curve, poor fit]. Cc1ccccc1C(=O)Nc1ccc(-c2nc3ccc(C(=O)c4ccccc4)cc3[nH]2)cc1 was tested, and the “activity change, negative = inhibition” value was inactive: 42.8%. O=C(NNc1nc2ccccc2s1)c1ccccc1F was tested, and the Potency was inconclusive: 0.0794 µM [inhibitor, full curve, poor fit]. In the case of C[C@]12CCC(=O)C=C1CCC1C3CC[C@](O)(C(=O)CO)[C@@]3(C)CC3OC312 (some centres not stated), the “activity change, negative = inhibition” value is reported as inactive: -18.6%. CC(C)(Oc1ccc(Cl)cc1)C(=O)NC1=NN(c2ccccc2)C(=O)C1 was tested, and the Potency was inconclusive: 35.5 µM [activator, single point]. For CCc1ccc2nc(N(CCCN(C)C)C(=O)c3ccc(S(=O)(=O)N4CCCc5ccccc54)cc3)sc2c1, the Potency was inconclusive: 15.8 µM [inhibitor, single point]. In the case of Cc1ccc(-n2nc(C(=O)NN)c(C)c(C#N)c2=O)cc1Cl, the Potency is reported as inconclusive: 11.2 µM [inhibitor, partial curve]. CCOc1nc(C)ccc1-c1noc(C)n1 was tested, and the Potency was inconclusive: 15.8 µM [inhibitor, single point]. OCC1(CCc2ccccc2)CCN(Cc2cnc(N3CCCC3)s2)CC1 was tested, and the “activity change, negative = inhibition” value was inactive: -1.14%. In the case of Cc1ccc(S(=O)(=O)N(CC(=O)NCCSc2ccccn2)c2ccc(C)c(C)c2)cc1, the Potency is reported as inconclusive: 31.6 µM [activator, single point]. O=C(Nc1nc(-c2ccccc2)cs1)c1ccccc1NS(=O)(=O)c1ccc(F)cc1 was tested, and the Potency was inconclusive: 35.5 µM [inhibitor, single point]. In the case of COc1ccc(/C=C(\NC(=O)c2ccc(OC)cc2)C(=O)N2CCCCC2)cc1, the Potency is reported as inconclusive: 12.6 µM [activator, partial curve, poor fit]. In the case of O=C(Nc1ccc(S(=O)(=O)N2CCCCC2)cc1)c1ccccc1F, the Potency is reported as inconclusive: 17.8 µM [activator, single point].
